Measured values reported in PubChem BioAssay AID248 (DTP/NCI, 2004).
The list does not hold the whole screen: it is rich in T/C values a quarter to a half above the control, in often repeated tests (any T/C) and in doses without a T/C. Other doses and runs of a compound stand elsewhere. T/C: endpoint of the treated group in % of that of the vehicle group. Some doses have a count of surviving animals in place of a T/C: the source files T/C as zero there, which appears to mark a toxic dose or a test without result, not a measured value. Some survivor counts are full or nearly so, which does not show that the dose was tolerated: the source hardly ever lists a survival T/C far under the control, and the zero likely stands for such cases as well. Counts of survivors are from the toxicity check (mostly the fifth day) where no day follows; animals may have died later. Schedule codes are those of the source, taken here to give the interval after Q, in days (D) or hours (H), and the number of doses after X. Some schedule codes hold Z or #, which are not explained here. For survival time, this PubChem deposit counts one and a half times the control or more as active, and values a quarter to a half above the control carry no call in these data; other NCI protocols may use other cut-offs.

Test system: L1210 leukemia ip in BDF1 mice, survival T/C
Assay: NCI In Vivo Anticancer Drug Screen. Data for tumor model L1210 Leukemia (intraperitoneal) in B6D2F1 (BDF1) mice
Details: T/C endpoint: mean survival time, higher T/C = longer survival
[1] = dose: 400.0 mg/kg/injection, schedule: Q01DX001 (ip), vehicle: Klucel (hydroxypropylcellulose) (HPC)
[2] = dose: 300.0 mg/kg/injection, schedule: Q01DX001 (ip), vehicle: saline

For C=CCc1c[nH]c(=S)[nH]c1=O.[Hg], the survivor count (dose: 25.0 mg/kg/injection, schedule: Q01DX001 (ip), vehicle: Klucel (hydroxypropylcellulose) (HPC)) was 2 of 6, the survivor count (dose: 25.0 mg/kg/injection, schedule: Q01DX009 (ip), vehicle: Klucel (hydroxypropylcellulose) (HPC)) was 5 of 6 and the survivor count (dose: 25.0 mg/kg/injection, schedule: Q04DX003 (ip), vehicle: Klucel (hydroxypropylcellulose) (HPC)) was 4 of 5. For the same compound, the survivor count (dose: 100.0 mg/kg/injection, schedule: Q01DX001 (ip), vehicle: Klucel (hydroxypropylcellulose) (HPC)) was 0 of 6, the survivor count (dose: 200.0 mg/kg/injection, schedule: Q01DX001 (ip), vehicle: Klucel (hydroxypropylcellulose) (HPC)) was 0 of 6 and the survivor count [1] was 0 of 5.

In the case of CS(=O)(=O)OCCNc1ccc([N+](=O)[O-])cc1, the survivor count (dose: 128.0 mg/kg/injection, schedule: Q01DX015 (ip), vehicle: saline) is reported as 4 of 6.

For CN(C)c1ccc(C(=C2C=CC(=[N+](C)C)C=C2)c2ccc(N(C)C)cc2)cc1, the survivor count (dose: 400.0 mg/kg/injection, schedule: Q01DX001 (ip), vehicle: saline) was 4 of 6.

C[N+](C)(C)CC1CCCCC1 was tested, and the survivor count (dose: 150.0 mg/kg/injection, schedule: Q01DX001 (ip), vehicle: saline) was 0 of 6 and the survivor count [2] was 0 of 6.

With COc1ccccc1-n1c(O)c(N=Nc2ccc(Cl)cc2)c(=O)n(-c2ccccc2OC)c1=S the survivor count [1] was 5 of 6.

For CCc1ccccc1NC(=O)Sc1cccc(C)c1, the survivor count (dose: 200.0 mg/kg/injection, schedule: Q01DX009 (ip), vehicle: Klucel (hydroxypropylcellulose) (HPC)) was 0 of 6, the survivor count (dose: 400.0 mg/kg/injection, schedule: Q01DX009 (ip), vehicle: Klucel (hydroxypropylcellulose) (HPC)) was 0 of 6 and the survivor count (dose: 400.0 mg/kg/injection, schedule: Q04DX003 (ip), vehicle: Klucel (hydroxypropylcellulose) (HPC)) was 2 of 6.

With Cc1ccc(CN(CCO)Cc2ccccc2)cc1 the survivor count (dose: 25.0 mg/kg/injection, schedule: Q01DX009 (ip), vehicle: water) was 3 of 6, the survivor count (dose: 50.0 mg/kg/injection, schedule: Q01DX009 (ip), vehicle: water) was 3 of 6 and the survivor count (dose: 100.0 mg/kg/injection, schedule: Q01DX009 (ip), vehicle: water) was 6 of 6. For the same compound, the survivor count (dose: 200.0 mg/kg/injection, schedule: Q01DX009 (ip), vehicle: water) was 1 of 6.

C=CCCC1(CCC(C)C)C(=O)NC(=O)NC1=O was tested, and the survivor count [2] was 1 of 6.

CN=C(N)c1ccc(NC(=O)c2ccc(C(=O)Nc3ccc(C(N)=NC)cc3)cc2)cc1 was tested, and the T/C (dose: 2.2 mg/kg/injection, schedule: Q01DX Z (ip), vehicle: methylcellulose (MC)) was 131 % of control, the T/C (dose: 3.3 mg/kg/injection, schedule: Q01DX Z (ip), vehicle: methylcellulose (MC)) was 147 % of control and the survivor count (dose: 16.0 mg/kg/injection, schedule: Q01DX006 (iv), vehicle: saline) was 2 of 6. For the same compound, the T/C (dose: 60.0 mg/kg/injection, schedule: Q01DX Z (ip), vehicle: methylcellulose (MC)) was 146 % of control and the T/C (dose: 120.0 mg/kg/injection, schedule: Q01DX Z (ip), vehicle: methylcellulose (MC)) was 134 % of control.

O=C1CCC2CN3CCc4c([nH]c5ccccc45)C3CC2C1 (centres undefined) was tested, and the survivor count (dose: 150.0 mg/kg/injection, schedule: Q01DX001 (ip), vehicle: other) was 3 of 6 and the survivor count (dose: 300.0 mg/kg/injection, schedule: Q01DX001 (ip), vehicle: other) was 0 of 6.

CCOC(=O)C(Cc1ccc(N(CCCl)CCCl)cc1)NC=O (centres undefined) was tested, and the T/C (dose: 20.0 mg/kg/injection, schedule: Q01DX Z (ip), vehicle: carboxymethylcellulose (CMC)) was 138 % of control, the T/C (dose: 39.0 mg/kg/injection, schedule: Q01DX001 (ip), vehicle: carboxymethylcellulose (CMC)) was 125 % of control and the T/C (dose: 40.0 mg/kg/injection, schedule: Q01DX001 (ip), vehicle: carboxymethylcellulose (CMC)) was 127 % of control. The T/C (dose: 58.0 mg/kg/injection, schedule: Q01DX001 (ip), vehicle: carboxymethylcellulose (CMC)) was 131 % of control, the T/C (dose: 62.0 mg/kg/injection, schedule: Q01DX001 (ip), vehicle: carboxymethylcellulose (CMC)) was 125 % of control and the T/C (dose: 80.0 mg/kg/injection, schedule: Q01DX Z (ip), vehicle: carboxymethylcellulose (CMC)) was 125 % of control. For the same compound, the T/C (dose: 88.0 mg/kg/injection, schedule: Q01DX001 (ip), vehicle: carboxymethylcellulose (CMC)) was 142 % of control, the T/C (dose: 94.0 mg/kg/injection, schedule: Q01DX001 (ip), vehicle: carboxymethylcellulose (CMC)) was 125 % of control and the T/C (dose: 100.0 mg/kg/injection, schedule: Q01DX001 (ip), vehicle: carboxymethylcellulose (CMC)) was 140 % of control. The T/C (dose: 140.0 mg/kg/injection, schedule: Q01DX001 (ip), vehicle: carboxymethylcellulose (CMC)) was 131 % of control, the survivor count (dose: 160.0 mg/kg/injection, schedule: Q01DX Z (ip), vehicle: carboxymethylcellulose (CMC)) was 6 of 6 and the survivor count (dose: 320.0 mg/kg/injection, schedule: Q01DX Z (ip), vehicle: carboxymethylcellulose (CMC)) was 2 of 6. The survivor count (dose: 400.0 mg/kg/injection, schedule: Q01DX001 (ip), vehicle: carboxymethylcellulose (CMC)) was 0 of 4.
